# In patent US7759375B2, “Epothilones C, D, E, and F, preparation and compositions” (priority 1996, dated 2010):
# Sequences of proteins named here, by UniProt entry; tags and fusion partners are left off.
# UniProt P02554, whole entry: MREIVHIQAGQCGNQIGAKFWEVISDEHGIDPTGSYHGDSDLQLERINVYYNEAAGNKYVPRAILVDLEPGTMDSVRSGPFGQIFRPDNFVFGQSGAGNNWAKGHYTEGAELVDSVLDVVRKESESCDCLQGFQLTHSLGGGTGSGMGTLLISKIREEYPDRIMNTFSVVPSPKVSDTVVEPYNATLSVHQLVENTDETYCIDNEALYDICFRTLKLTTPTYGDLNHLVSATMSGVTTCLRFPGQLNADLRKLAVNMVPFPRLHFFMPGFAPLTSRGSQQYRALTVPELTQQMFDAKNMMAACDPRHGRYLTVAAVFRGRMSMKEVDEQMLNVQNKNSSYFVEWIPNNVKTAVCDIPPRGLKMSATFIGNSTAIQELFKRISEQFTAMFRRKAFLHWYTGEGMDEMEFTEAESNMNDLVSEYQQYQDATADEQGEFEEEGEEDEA
# Target: T1, purified tubulin from pigs' brain (Sus scrofa, UniProt P02554)
# T1 construct: purified tubulin from pigs' brain; from tissue; host or cells: pig brain
# Type: biochemical, pig
# Settings: 0.9 mg of tubulin/ml, 1 μM sample concentration
# Method: The epothilones according to the invention were tested with cell cultures (Table 2) and for promotion of polymerization (Table 3).
# The polymerization test is an in vitro test using purified tubulin from pigs' brain. Evaluation is carried out photometrically.
compound,measurement,setting,value
C/C(=C\c1csc(CO)n1)[C@@H]1C[C@@H]2O[C@@H]2CCC[C@H](C)[C@H](O)[C@@H](C)C(=O)C(C)(C)[C@@H](O)CC(=O)O1 [Epothilone E],"Time up to the half-maximal polymerization, Agent [%] (relative activity in % of the control)","control = 100, lowest values indicate the best activity",31%
same,"Time up to the half-maximal polymerization of the control, Agent [s]","average of experiments w-z, control 190 s",59 s
same,"Time up to the half-maximal polymerization of the control, measurement w",independent experiment w,80 s
same,"Time up to the half-maximal polymerization of the control, measurement x",independent experiment x,60 s
same,"Time up to the half-maximal polymerization of the control, measurement y",independent experiment y,50 s
same,"Time up to the half-maximal polymerization of the control, measurement z",independent experiment z,45 s
